Measured values taken from PubChem BioAssay AID1347075 (National Center for Advancing Translational Sciences (NCATS), 2019).
In all, about 400,000 compounds went through this assay and about 5,500 (1.4%) were called active. This list was built around the results that the source calls inconclusive (neither active nor inactive); the mix of calls is not that of the screen. The call rests on the fitted dose curve; in most records, active means well fitted cell-killing curve with a large enough effect; inconclusive means small, poorly fitted or top-dose-only effect, or effect the other way; inactive means flat fitted curve, though single readings scatter. A potency beside an inconclusive call is a rough fit, not a confirmed value.

Assay: qHTS assay for MDR1-selective chemotherapeutics: Primary screen using the parental adenocarcinoma cell KB-3-1; further: nearly all actives have a fitted effect of over 60% in size
Conditions: KB-3-1 viability, CellTiter-Glo ATP luminescence, 72 h; activity change, negative = cytotoxic: at 46.1 µM (top of the series)
Procedure, shortened: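 Using CellTiter-Glo luminescence, growth of non-resistant KB-3-1 adenocarcinoma cells is assessed 72 h after pin-tool compound addition at 37 °C. Normalized responses across the concentration series yield fitted curves.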
On the % scale 0 is the no-effect control and ±100 the full control effect; potency means the concentration at half of the fitted maximal effect.

| Structure (SMILES) | Potency | activity change, negative = cytotoxic |
| --- | --- | --- |
| CCc1ccc(NC(=S)NC2CCN(Cc3ccccc3)CC2)cc1 | inconclusive: 23.1 µM [cytotoxic, single point] | – |
| COc1ccc(/C=C2/SC(=O)N(CCC(=O)Nc3ccc(S(=O)(=O)Nc4nccs4)cc3)C2=O)cc1 | inconclusive: 29.1 µM [rising, single point] | – |
| Cc1onc(-c2ccccc2)c1C(=O)OCc1nnc(-c2ccc([N+](=O)[O-])cc2)o1 | inactive | – |
| O=C(CC(Sc1ccccc1)c1cccs1)c1ccco1 (centres undefined) | inactive | – |
| CCn1c(C)c(C2N3CC4(C)CN2CC(C)(C3)C4=O)c2ccccc21 (centres undefined) | inactive | – |
| COc1ccccc1NC(=O)c1cnc(SCC(=O)NCC2CCCO2)n(C)c1=O (centres undefined) | inconclusive: 29.1 µM [cytotoxic, single point] | – |
| COc1ccc(C=O)cc1COc1ccc(C)cc1[N+](=O)[O-] | inconclusive: 18.4 µM [cytotoxic, single point] | – |
| Cc1noc(C(=O)Nc2sc3c(c2C#N)CCC3)c1Cl | inconclusive: 11.6 µM [cytotoxic, partial curve] | – |
| CC(=O)N1CCc2c(sc(NC(=O)CS(=O)(=O)c3ccc(F)cc3)c2C#N)C1 | inconclusive: 29.1 µM [cytotoxic, single point] | – |
| C=CCn1c(SCc2ccc(Cl)cc2)nc2cc(C(=O)N3CCC(C(N)=O)CC3)ccc2c1=O | inconclusive: 16.4 µM [cytotoxic, single point] | – |
| N/C(=N/O)c1ccccc1N1CCC(Cc2ccccc2)CC1 | inconclusive: 29.1 µM [cytotoxic, single point] | – |
| CCSC1=NC2(CCCCC2)Nc2sc3c(c21)CCCC3 | inconclusive: 29.1 µM [cytotoxic, single point] | – |
| Cc1ccc2[nH]c3c(c2c1)CN(C(=O)CN1CCN(Cc2ccc4c(c2)OCO4)CC1)CC3 | inconclusive: 29.1 µM [cytotoxic, single point] | – |
| CC(C)(C)n1nnnc1C(c1ccc(C(F)(F)F)cc1)N(Cc1ccccc1)Cc1ccco1 (centres undefined) | inconclusive: 29.1 µM [cytotoxic, single point] | – |
| CC(/C=N/NC(=O)c1ccco1)=C\c1ccccc1 | inconclusive: 3.66 µM [rising, partial curve, poor fit] | – |
| CCCNC(=O)c1c(N)n(-c2ccc3c(c2)OCO3)c2nc3ccccc3nc12 | inconclusive: 18.4 µM [cytotoxic, partial curve, poor fit] | – |
| CC(Sc1nc2ccccc2c(=O)n1C)C(=O)Nc1ccc2c(c1)OCCO2 (centres undefined) | inconclusive: 32.6 µM [cytotoxic, partial curve, poor fit] | – |
| CCc1ccccc1NC(=O)Nc1c[nH]c(=O)[nH]c1=O | inactive | – |
| Cc1ccc(C)c(N2CCN(C(=O)c3ccc(NC(=O)c4nsc5ccccc45)cc3)CC2)c1 | inactive | – |
| Oc1c(CN2CCCCC2)cc(Br)c2cccnc12 | active: 13 µM | – |
| Cc1ccc(COc2ccc(S(=O)(=O)N3CCCC3)cc2C(N)=O)cc1 | inconclusive: 29.1 µM [rising, single point] | – |
| CC1CCCN(CCCNC(=O)c2ccc3c(c2)N(Cc2ccccc2F)C(=O)c2ccccc2S3(=O)=O)C1 (centres undefined) | inconclusive: 18.4 µM [cytotoxic, partial curve] | – |

| Structure (SMILES) | Potency | activity change, negative = cytotoxic |
| --- | --- | --- |
| CC(Cc1ccccn1)NC(=O)c1ccc(OC2CCN(CCc3ccccc3)CC2)cc1 (centres undefined) | – | inconclusive: -1.06% |
| CS(=O)(=O)c1ccc(Nc2nc(C(N)c3ccccc3Cl)cs2)cc1 (centres undefined) | inconclusive: 20.6 µM [cytotoxic, single point] | – |
| CC(C)(C)c1ccc(NC(=O)C2CCCN(c3cnccn3)C2)cc1 (centres undefined) | inactive | – |
| COCCn1c(SCC(=O)Nc2ccc(Cl)cn2)nc2ccccc21 | inconclusive: 16.4 µM [rising, single point] | – |
| FC(F)Oc1ccc(-c2c[n+]3c(n2-c2ccccc2)CCCCC3)cc1 | inconclusive: 29.1 µM [cytotoxic, single point] | – |
| Cc1ccc2c(c1)c1c(c(=O)n(-c3cccc(Cl)c3)c(=O)n1CC(=O)Nc1c(C)cccc1C)n2C | inactive | – |
| COc1ccc(S(=O)(=O)NCc2ccccn2)cc1NC(=O)c1ccc(Cl)cc1 | inconclusive: 29.1 µM [cytotoxic, single point] | – |
| Cn1nc(-c2ccc(NCCO)c([N+](=O)[O-])c2)c2ccccc2c1=O | inconclusive: 29.1 µM [cytotoxic, single point] | – |
| CCOC(=O)Cc1[nH]nc2c1C(Cc1ccccc1)C(C#N)=C(N)O2 (centres undefined) | inactive | – |
| O=C(COC(=O)c1cccc(Br)c1)Nc1cccc2c1C(=O)c1ccccc1C2=O | inconclusive: 29.1 µM [cytotoxic, single point] | – |
| CCC(=O)Nc1ccccc1C(=O)OCC(=O)c1ccccc1 | inactive | – |
| O=C(COC(=O)c1cnccn1)Nc1ncc(C(F)(F)F)cc1Cl | inactive | – |
| COc1ccc(Nc2oc(-c3ccc(Cl)cc3)nc2C#N)cc1 | active: 4.61 µM | – |
| CC(C)(C)c1nc2c(C#N)c(-c3ccc(Cl)cc3)ccn2n1 | inconclusive: 35.5 µM [cytotoxic, single point] | – |
| CC(C)N1CCN(c2ccc(OC[C@H]3CO[C@](Cn4cncn4)(c4ccc(Cl)cc4Cl)O3)cc2)CC1 | inconclusive: 29.1 µM [cytotoxic, single point] | – |
| COc1ccc(S(=O)(=O)N2CCN(c3cc(-c4ccccc4)nc4ncnn34)CC2)cc1 | inconclusive: 16.4 µM [cytotoxic, single point] | – |
| CCOCCCNC(=O)c1c(N)n(-c2ccc3c(c2)OCO3)c2nc3ccccc3nc12 | inactive | – |
| Cc1cc(NC(=O)CSc2nccn2-c2cccc(C)c2C)no1 | inconclusive: 18.4 µM [cytotoxic, single point] | – |
| CC(C)c1ccc(C2=CC(c3ccc(C(C)C)cc3)n3nnnc3N2)cc1 (centres undefined) | inactive | – |
| C=CCNC(=O)c1c(Br)cnn1-c1ccc(C)cc1 | inconclusive: 0.0146 µM [cytotoxic, full curve] | – |
| O=C(CSc1ncnc2sc3c(c12)CCCC3)c1ccccc1 | inconclusive: 29.1 µM [cytotoxic, single point] | – |
| CN1CCC(N(C)C(=O)c2cc(-c3ccc(F)cc3)nc3ccccc23)CC1 | inconclusive: 1.84 µM [cytotoxic, full curve] | – |

2 consecutive compounds already listed, quoted:

| Structure (SMILES) | Potency | activity change, negative = cytotoxic |
| --- | --- | --- |
| CCC(=O)Nc1ccccc1C(=O)OCC(=O)c1ccccc1 | inactive | – |
| O=C(COC(=O)c1cnccn1)Nc1ncc(C(F)(F)F)cc1Cl | inactive | – |
